Consider two sequences from publication PMC3355152.

Data set [1] deals with T1, SpLsm4N (Schizosaccharomyces pombe) (UniProt O14352).
T1 sequence (looked up): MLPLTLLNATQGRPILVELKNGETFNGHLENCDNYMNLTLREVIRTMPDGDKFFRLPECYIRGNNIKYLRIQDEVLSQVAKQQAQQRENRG
The data set is described as follows: SPR. The settings on record: 1 uM protein, weak and transient (abstract: no RNA binding), SPR (Biacore 3000): 20 mM Hepes pH 7.5, 100 mM NaCl, 25 C, recombinant protein, residues 1-91, protein details: N-terminal His6, label: 5' biotin. A general note: SPR reads the build-up and loss of mass on a sensor chip optically.

The target of data set [2] is T1, SpLsm4N (Schizosaccharomyces pombe). The experiment in a line: fluorescence anisotropy. Conditions: Kd not determinable, very weak binding, up to 100 uM protein; FA: 20 mM Hepes pH 7.5, 100 mM NaCl, 25 C, 0.1 uM RNA; recombinant protein; residues 1-91; protein details: N-terminal His6; label: 5' 6-FAM. For orientation: Polarisation of emitted light reports the rotation of a fluorescent probe.

The comparison behind a weaker result is the experiment's own reference, which may not be listed here. Tags and fusion partners may be left off the protein sequences shown.

For the sequence UUUUUUUUUUUUUUU [U15 (biotin)], the binding result in data set [1] is “binds more weakly”.
Take UUUUUUUUUUUUUUU [U15 (FAM)]: in data set [2], the binding result was “binds more weakly”.
